{"source": "PubChem BioAssay AID1053208 (Peter MacCallum Cancer Centre, 2014)", "screen": "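Find knock-downs that sensitise mouse osteosarcoma cells to doxorubicin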 (primary screen)", "cells": "mouse osteosarcoma cells, early-passage culture from an engineered mouse model of fibroblastic bone tumour", "knock-down reagent": "siRNA pool against mouse genes, 40 nM", "duration": "about 120 h (48 h before drug, then 72 h with drug)", "conditions": "doxorubicin 100 nM for 72 h, roughly 30-40% inhibitory dose", "detection": "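Luminescent ATP signal taken as viability with or without 100 nM doxorubicin for 72 h; mean of two wells set against non-targeting siRNA and turned into robust z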", "direction": "viability z-score with doxorubicin: higher = more viable cells under doxorubicin; viability z-score without drug: higher = more viable cells with knock-down alone", "active means": "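Called active if knock-down leaves viability unchanged without drug (z within -2 to 2) but lowers it with doxorubicin (z at or under -2)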", "note": "Shown is a random part of about 17,000 deposited reagents. 788 of all reagents (4.7%) were called active. 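Calls rest on z-score classes alone; an extra cut-off of viability at most 70% of control was not applied to them.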 Further read-outs or replicates are left out here."}
{"Gene": "Gna15", "combined z-score class": "no change with or without drug", "viability z-score with doxorubicin": -0.56, "viability z-score without drug": 1.01, "outcome": "inactive"}
{"Gene": "Cyp2b13", "combined z-score class": "no change with or without drug", "viability z-score with doxorubicin": 0.22, "viability z-score without drug": 0.17, "outcome": "inactive"}
{"Gene": "Pcdhgb7", "combined z-score class": "no change with or without drug", "viability z-score with doxorubicin": -1.12, "viability z-score without drug": 0.84, "outcome": "inactive"}
{"Gene": "Gm20558", "combined z-score class": "no change with or without drug", "viability z-score with doxorubicin": 0.56, "viability z-score without drug": 0.17, "outcome": "inactive"}
{"Gene": "Usp11", "combined z-score class": "no change with or without drug", "viability z-score with doxorubicin": -0.9, "viability z-score without drug": -0.67, "outcome": "inactive"}
{"Gene": "Hoxc4", "combined z-score class": "no change with or without drug", "viability z-score with doxorubicin": -1.12, "viability z-score without drug": -0.17, "outcome": "inactive"}
{"Gene": "Rnf186", "combined z-score class": "no change with or without drug", "viability z-score with doxorubicin": -1.12, "viability z-score without drug": -0.84, "outcome": "inactive"}
{"Gene": "Cep55", "combined z-score class": "low cell count with doxorubicin only", "viability z-score with doxorubicin": -2.92, "viability z-score without drug": -1.35, "outcome": "active"}
{"Gene": "Gfi1b", "combined z-score class": "low cell count with doxorubicin only", "viability z-score with doxorubicin": -2.59, "viability z-score without drug": -1.18, "outcome": "active"}
{"Gene": "Hmgn2", "combined z-score class": "no change with or without drug", "viability z-score with doxorubicin": -0.45, "viability z-score without drug": -1.52, "outcome": "inactive"}
{"Gene": "Slc19a2", "combined z-score class": "no change with or without drug", "viability z-score with doxorubicin": -1.35, "viability z-score without drug": -1.85, "outcome": "inactive"}
{"Gene": "Slc22a20", "combined z-score class": "no change with or without drug", "viability z-score with doxorubicin": 1.35, "viability z-score without drug": 0, "outcome": "inactive"}
{"Gene": "Lxn", "combined z-score class": "no change with or without drug", "viability z-score with doxorubicin": -0.34, "viability z-score without drug": -0.84, "outcome": "inactive"}
{"Gene": "Zfp157", "combined z-score class": "no change with or without drug", "viability z-score with doxorubicin": 0.56, "viability z-score without drug": -0.17, "outcome": "inactive"}
{"Gene": "KCNK7", "combined z-score class": "no change with or without drug", "viability z-score with doxorubicin": -1.57, "viability z-score without drug": -1.52, "outcome": "inactive"}
{"Gene": "Itln1", "combined z-score class": "no change with or without drug", "viability z-score with doxorubicin": -0.9, "viability z-score without drug": -0.84, "outcome": "inactive"}
{"Gene": "Tmem125", "combined z-score class": "low cell count without drug only", "viability z-score with doxorubicin": -0.67, "viability z-score without drug": -3.04, "outcome": "inactive"}
{"Gene": "Capn9", "combined z-score class": "no change with or without drug", "viability z-score with doxorubicin": -0.9, "viability z-score without drug": -0.17, "outcome": "inactive"}
{"Gene": "Ggcx", "combined z-score class": "no change with or without drug", "viability z-score with doxorubicin": -0.67, "viability z-score without drug": -0.67, "outcome": "inactive"}

Already shown: entries from further up.
{"Gene": "Cyp2b13", "combined z-score class": "no change with or without drug", "viability z-score with doxorubicin": 0.22, "viability z-score without drug": 0.17, "outcome": "inactive"}
{"Gene": "Pcdhgb7", "combined z-score class": "no change with or without drug", "viability z-score with doxorubicin": -1.12, "viability z-score without drug": 0.84, "outcome": "inactive"}
